{"sequences": {"note": "The chains behind the UniProt entries cited, without tags or fusion partners.", "UniProt Q7KQL5": "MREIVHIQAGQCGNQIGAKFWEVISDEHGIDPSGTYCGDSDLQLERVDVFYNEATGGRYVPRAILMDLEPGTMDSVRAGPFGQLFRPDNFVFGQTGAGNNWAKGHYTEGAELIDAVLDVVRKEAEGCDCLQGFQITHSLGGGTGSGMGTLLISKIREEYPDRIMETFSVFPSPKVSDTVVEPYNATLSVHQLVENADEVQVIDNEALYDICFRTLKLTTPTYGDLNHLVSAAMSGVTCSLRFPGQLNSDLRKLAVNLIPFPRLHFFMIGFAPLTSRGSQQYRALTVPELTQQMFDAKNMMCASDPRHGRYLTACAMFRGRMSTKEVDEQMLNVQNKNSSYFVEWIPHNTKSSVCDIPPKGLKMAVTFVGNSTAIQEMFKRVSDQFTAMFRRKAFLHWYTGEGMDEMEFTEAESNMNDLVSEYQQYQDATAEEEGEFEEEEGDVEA"}, "source": "paper doi:10.1101/2022.07.07.499247", "biological_target": "T1, endogenous PfCoSP in Plasmodium falciparum parasite lysate (Plasmodium falciparum (endogenous in parasite lysate)) (UniProt Q8I248)", "T1 sequence": "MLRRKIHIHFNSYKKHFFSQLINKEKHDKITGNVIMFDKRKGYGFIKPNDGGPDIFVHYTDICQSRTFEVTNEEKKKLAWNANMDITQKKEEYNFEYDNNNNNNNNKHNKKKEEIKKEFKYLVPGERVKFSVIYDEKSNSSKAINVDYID", "experiment": "co-IP", "note": "Results are given in words; binding and its absence hold for the method and conditions named. Binding seen in cells or lysates may run through a third protein. Some binding calls cover weakened binding; strength is not graded here."}
{"substance": "endogenous beta tubulin in Plasmodium falciparum parasite lysate (from UniProt Q7KQL5 1-445)", "values": [{"measurement": "binding", "value": "binds"}]}
